Source: paper doi:10.1101/2021.02.01.429225
These are yes or no findings as the source states them, for the method shown.

Sequences of proteins named here, by UniProt entry; tags and fusion partners are left off.
UniProt Q9BU64: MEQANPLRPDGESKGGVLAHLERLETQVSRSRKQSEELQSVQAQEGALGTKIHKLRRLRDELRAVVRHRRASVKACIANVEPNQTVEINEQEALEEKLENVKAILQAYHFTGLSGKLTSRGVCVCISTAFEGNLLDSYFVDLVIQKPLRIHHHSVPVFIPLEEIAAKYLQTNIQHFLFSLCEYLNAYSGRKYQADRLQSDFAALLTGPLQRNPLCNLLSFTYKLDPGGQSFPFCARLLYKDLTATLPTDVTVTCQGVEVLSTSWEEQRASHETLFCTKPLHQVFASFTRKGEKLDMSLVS
UniProt Q6IPU0: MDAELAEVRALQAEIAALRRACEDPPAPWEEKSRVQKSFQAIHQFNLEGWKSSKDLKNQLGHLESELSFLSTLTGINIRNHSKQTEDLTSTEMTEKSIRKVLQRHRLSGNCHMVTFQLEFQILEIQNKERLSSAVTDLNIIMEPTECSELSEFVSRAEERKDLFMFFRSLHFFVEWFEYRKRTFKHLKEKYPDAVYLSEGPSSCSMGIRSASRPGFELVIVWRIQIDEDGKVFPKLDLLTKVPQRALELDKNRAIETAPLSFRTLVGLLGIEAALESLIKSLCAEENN
UniProt Q7L2Z9: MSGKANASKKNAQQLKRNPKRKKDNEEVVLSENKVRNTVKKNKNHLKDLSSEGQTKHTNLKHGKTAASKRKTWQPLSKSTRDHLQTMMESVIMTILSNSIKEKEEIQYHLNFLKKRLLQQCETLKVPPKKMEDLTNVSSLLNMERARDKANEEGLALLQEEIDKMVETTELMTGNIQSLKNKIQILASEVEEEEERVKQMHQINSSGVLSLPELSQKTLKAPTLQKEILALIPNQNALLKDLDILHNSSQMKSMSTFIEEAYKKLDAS
UniProt Q13352: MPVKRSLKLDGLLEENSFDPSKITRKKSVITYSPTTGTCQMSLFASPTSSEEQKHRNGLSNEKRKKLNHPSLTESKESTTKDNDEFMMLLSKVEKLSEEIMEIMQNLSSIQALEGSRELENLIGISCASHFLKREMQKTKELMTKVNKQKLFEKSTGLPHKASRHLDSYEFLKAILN
UniProt Q71F23: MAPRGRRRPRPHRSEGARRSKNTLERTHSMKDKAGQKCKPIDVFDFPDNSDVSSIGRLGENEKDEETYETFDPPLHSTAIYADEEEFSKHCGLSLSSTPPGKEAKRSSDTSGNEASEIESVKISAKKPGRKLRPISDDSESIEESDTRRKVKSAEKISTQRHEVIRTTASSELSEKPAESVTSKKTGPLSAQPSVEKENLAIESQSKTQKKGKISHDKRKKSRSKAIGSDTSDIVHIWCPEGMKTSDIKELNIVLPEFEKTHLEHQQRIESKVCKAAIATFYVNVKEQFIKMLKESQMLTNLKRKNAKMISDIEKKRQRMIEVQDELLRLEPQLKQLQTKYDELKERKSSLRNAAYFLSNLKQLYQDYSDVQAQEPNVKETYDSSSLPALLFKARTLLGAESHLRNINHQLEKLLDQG
UniProt Q9NQS7: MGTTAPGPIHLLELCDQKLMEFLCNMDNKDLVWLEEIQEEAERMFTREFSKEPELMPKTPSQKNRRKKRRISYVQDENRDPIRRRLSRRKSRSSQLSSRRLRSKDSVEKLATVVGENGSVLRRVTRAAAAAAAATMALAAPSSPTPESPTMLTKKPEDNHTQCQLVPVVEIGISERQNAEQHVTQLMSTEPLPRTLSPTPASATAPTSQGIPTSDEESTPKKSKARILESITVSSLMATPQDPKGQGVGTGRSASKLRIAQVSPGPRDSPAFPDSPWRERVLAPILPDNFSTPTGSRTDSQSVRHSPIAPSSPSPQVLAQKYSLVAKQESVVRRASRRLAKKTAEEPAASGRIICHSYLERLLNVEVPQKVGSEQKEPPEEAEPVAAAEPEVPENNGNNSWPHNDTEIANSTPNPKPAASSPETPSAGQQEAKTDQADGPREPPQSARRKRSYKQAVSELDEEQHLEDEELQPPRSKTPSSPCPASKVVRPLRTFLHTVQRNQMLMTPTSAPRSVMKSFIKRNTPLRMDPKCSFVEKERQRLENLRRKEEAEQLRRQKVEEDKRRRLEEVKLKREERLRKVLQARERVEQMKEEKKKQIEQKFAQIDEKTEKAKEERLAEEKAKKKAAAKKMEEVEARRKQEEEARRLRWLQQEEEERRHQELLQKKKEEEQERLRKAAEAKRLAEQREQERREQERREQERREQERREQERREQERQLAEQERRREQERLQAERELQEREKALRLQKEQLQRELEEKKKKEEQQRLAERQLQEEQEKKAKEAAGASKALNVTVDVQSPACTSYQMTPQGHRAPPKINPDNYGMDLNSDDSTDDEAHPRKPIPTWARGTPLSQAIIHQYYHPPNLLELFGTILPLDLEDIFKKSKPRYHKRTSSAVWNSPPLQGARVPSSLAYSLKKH

How the values were obtained:
Assay in all cases: LacO/LacI tethering and recruitment, read by immunofluorescence
EGFP-LacI-CENP-O = EGFP-LacI-CENP-O (UniProt Q9BU64)
EGFP-LacI-CENP-P = EGFP-LacI-CENP-P (UniProt Q6IPU0)
EGFP-LacI-CENP-Q = EGFP-LacI-CENP-Q (UniProt Q7L2Z9)
EGFP-LacI-CENP-R = EGFP-LacI-CENP-R (UniProt Q13352)
EGFP-LacI-CENP-U = EGFP-LacI-CENP-U (UniProt Q71F23)

Measured: binding

INCENP (from UniProt Q9NQS7 1-918)
no binding: all assays above

Polo-like kinase 1 (Plk1) (from UniProt P53350 1-603) (enzyme)
not listed: EGFP-LacI-CENP-U
no binding: all other assays above
